This series has as its target T1, Npl3 RRM1/2 F128A+F160A (Saccharomyces cerevisiae) (UniProt Q01560).
T1 sequence (looked up): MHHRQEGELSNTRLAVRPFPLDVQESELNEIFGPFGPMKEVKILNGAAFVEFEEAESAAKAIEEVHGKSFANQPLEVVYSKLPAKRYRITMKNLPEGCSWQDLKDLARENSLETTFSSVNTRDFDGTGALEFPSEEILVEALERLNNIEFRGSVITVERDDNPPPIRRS
The series is described as follows: ITC. The settings on record: ITC at 40 °C in NMR buffer: RRM1 and RRM1/2 25 mM Na2HPO4, 25 mM NaH2PO4 pH 6.9; RRM2 100 mM NaCl, 20 mM NaH2PO4 pH 5.5; recombinant protein; residues 114-282.

Chains of the proteins cited; added tags and fusions are not shown. Lines headed by an entry give the natural chain unless they say otherwise; changes in a name come on top.
UniProt Q01560: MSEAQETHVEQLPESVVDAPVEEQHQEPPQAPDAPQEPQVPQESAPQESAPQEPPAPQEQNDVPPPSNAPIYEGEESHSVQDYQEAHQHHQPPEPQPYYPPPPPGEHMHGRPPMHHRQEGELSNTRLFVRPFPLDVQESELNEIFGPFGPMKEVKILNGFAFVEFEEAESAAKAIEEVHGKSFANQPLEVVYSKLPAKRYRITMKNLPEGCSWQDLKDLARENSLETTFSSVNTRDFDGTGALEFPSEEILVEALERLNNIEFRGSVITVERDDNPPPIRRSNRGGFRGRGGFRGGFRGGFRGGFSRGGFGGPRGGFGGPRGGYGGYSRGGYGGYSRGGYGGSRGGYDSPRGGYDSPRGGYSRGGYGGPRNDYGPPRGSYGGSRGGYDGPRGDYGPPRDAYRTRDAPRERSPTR

The comparison behind a weaker result is the experiment's own reference, which may not be listed here. Where a protein sequence is shown, tags need not be part of it.

In the case of AUCCAGUGGAA [split-iCRAC consensus RNA], the binding result was “binds more weakly”.

The values above are taken from paper PMC10630445, “RNA recognition by Npl3p reveals U2 snRNA-binding compatible with a chaperone role during splicing”.
